Data source: PubChem BioAssay AID652243 (Drosophila RNAi Screening Center, 2013)
The deposit covers about 24,000 reagents; shown is a random part of those that have a named target and a result. Over the whole deposit, 246 (1%) were called active. 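Plates not normalised; calls are printed but the firefly/Renilla ratio behind them is not deposited; fold cut for lowering reported inconsistently.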 The raw values are shown without normalisation. A plus sign joins genes that one reagent is predicted to hit. The record does not give: the amount of reagent.

- Test: 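Fly regulators of androgen-dependent reporter output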 (primary screen)
- System: Drosophila S2R+ cells
- Reagent: long dsRNA against Drosophila genes
- Duration: 72 h (48 h, then 24 h hormone)
- Conditions: synthetic androgen R1881 at 10 nM for 24 h
- Detection: 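Per-well raw luminescence of the androgen-driven firefly reporter and of the Renilla control, two replicates each, without normalisation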
- Scale: firefly reporter light: higher = more light from androgen-responsive reporter; Renilla control light: higher = more constitutive control signal (cell number, transfection)
- Hit rule: 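Across duplicate plates, a knock-down whose log firefly/Renilla ratio shifted a set fold down or up from the GFP/LacZ control mean was a hit; the downward cut appears as both 1.5 and 3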
- Meaning of the calls: active = hit: reporter lowered or raised; inactive = no hit

Target gene	dsRNA	firefly reporter light, replicate 1	firefly reporter light, replicate 2	Renilla control light, replicate 1	Renilla control light, replicate 2	outcome
CG14269 (GeneID 31312)	DRSC17912	2.77e5	2.56e5	3.36e6	2.77e6	inactive
Ge-1 (GeneID 34541)	DRSC02938	3.93e5	6.23e5	1.28e6	1.54e6	inactive
Ge-1 (GeneID 34541)	DRSC28827	3.86e5	3.85e5	9.55e5	9.65e5	inactive
CG8646 (GeneID 36394)	DRSC07230	2.47e5	2.43e5	1.83e6	1.64e6	inactive
CG8997 (GeneID 34799)	DRSC01900	2.80e5	2.21e5	9.31e5	1.60e6	inactive
CG8997 (GeneID 34799)	DRSC28002	6.48e5	5.14e5	2.26e6	1.35e6	inactive
CG10073 (GeneID 37225)	DRSC05961	79922	69935	9.45e5	6.44e5	inactive
CG7329 (GeneID 34457)	DRSC03046	2.02e5	2.31e5	1.39e6	1.57e6	inactive
CG7329 (GeneID 34457)	DRSC26137	2.70e5	2.64e5	8.04e5	7.91e5	inactive
CG32407 (GeneID 38667)	DRSC09789	86070	65474	1.31e6	7.67e5	inactive
CG14537 (GeneID 34072)	DRSC02395	1.90e5	2.17e5	1.59e6	1.62e6	inactive
CG16904 (GeneID 41212)	DRSC15161	1.61e5	37998	9.18e5	5.11e5	inactive
CG16904 (GeneID 41212)	DRSC25306	1.12e6	1.34e6	7.13e5	8.46e5	inactive
CG9288 + CG42375	DRSC39267					inactive
CG31016 (GeneID 326113)	DRSC21359	7.10e5	7.00e5	1.56e6	2.01e6	inactive
CG31016 (GeneID 326113)	DRSC27353	2.12e5	2.45e5	4.02e5	4.05e5	inactive
CG15403 (GeneID 33527)	DRSC00417	1.12e5	1.17e5	1.06e6	9.59e5	inactive
Sms (GeneID 39403)	DRSC10408	1.79e5	1.88e5	1.99e6	1.87e6	inactive
Pk34A (GeneID 34705)	DRSC03398	3.48e5	3.33e5	2.23e6	2.27e6	inactive
Pk34A (GeneID 34705)	DRSC28021	6.69e5	5.57e5	1.39e6	1.16e6	inactive
Pk34A (GeneID 34705)	DRSC37044					inactive
Fbp2 (GeneID 34259)	DRSC03327	7.18e5	8.77e5	1.38e6	2.02e6	inactive
Fbp2 (GeneID 34259)	DRSC29036	5.45e5	5.79e5	1.03e6	1.20e6	inactive
CG31633 (GeneID 33931)	DRSC02275	1.91e5	1.17e5	2.05e6	1.58e6	inactive
CG31633 (GeneID 33931)	DRSC27022	4.31e5	3.93e5	7.05e5	3.54e5	inactive
Hcf (GeneID 43788)	DRSC17143	1.27e5	1.41e5	1.15e6	6.92e5	inactive
CG17618 (retired record) + CG45049	DRSC16163	2.14e5	2.28e5	3.16e6	3.20e6	inactive
CG17618 (retired record) + CG45049	DRSC23175	6.69e5	6.87e5	1.87e6	2.43e6	inactive
CG9578 (GeneID 33018)	DRSC20694	1.04e5	1.45e5	9.21e5	1.05e6	inactive
CG9578 (GeneID 33018)	DRSC29540	2.99e5	3.74e5	6.86e5	6.86e5	inactive
Tes (GeneID 36965)	DRSC06996	1.53e5	87253	2.00e6	2.00e6	inactive
mael (GeneID 40489)	DRSC11894	40395	76393	3.12e5	3.52e5	inactive
MTF-1 (GeneID 39089)	DRSC11217	3.93e5	3.66e5	3.00e6	2.46e6	inactive
MTF-1 (GeneID 39089)	DRSC21341	8.49e5	8.07e5	1.58e6	1.41e6	inactive
tara (GeneID 53562)	DRSC23014	4.89e5	7.07e5	2.04e5	3.31e5	inactive
tara (GeneID 53562)	DRSC29664	3.53e5	2.65e5	6.71e5	6.71e5	inactive
CG15330 (GeneID 31715)	DRSC18014	1.92e5	2.02e5	2.05e6	2.31e6	inactive
ndl (GeneID 38738)	DRSC11374	1.34e5	1.38e5	2.02e6	2.06e6	inactive
ndl (GeneID 38738)	DRSC26902	3.62e5	2.68e5	6.93e5	5.71e5	inactive
Npc2c (GeneID 41233)	DRSC15523	1.13e5	1.36e5	1.34e6	2.29e6	inactive
Npc2c (GeneID 41233)	DRSC28593	4.67e5	5.34e5	1.89e6	1.35e6	inactive
RpS25 (GeneID 41343)	DRSC16837	1.63e5	1.95e5	2.79e6	3.06e6	inactive
RpS25 (GeneID 41343)	DRSC29990	8.25e5	5.79e5	1.11e6	1.17e6	inactive
CG6321 (GeneID 39233)	DRSC10623	9.98e5	7.10e5	1.06e6	8.74e5	inactive
CG8539 (GeneID 38842)	DRSC10988	1.08e6	7.55e5	1.09e6	1.89e6	inactive
CG8539 (GeneID 38842)	DRSC21798	4.95e5	3.97e5	2.52e6	2.76e6	inactive
CG8539 (GeneID 38842)	DRSC28192	6.29e5	5.39e5	1.42e6	1.10e6	inactive
Pis (GeneID 32506)	DRSC20178	6.54e5	6.49e5	5.23e6	3.40e6	inactive
Pis (GeneID 32506)	DRSC29976	4.70e5	2.19e5	1.26e6	1.21e6	inactive
Cul6 (GeneID 39474)	DRSC09830	7.85e5	8.14e5	1.45e6	2.16e6	inactive
Rbpn-5 (GeneID 37395)	DRSC04440	1.07e6	9.92e5	2.65e6	2.67e6	inactive
Rbpn-5 (GeneID 37395)	DRSC26142	3.56e5	2.55e5	6.69e5	7.48e5	inactive
TTLL1A (GeneID 32704)	DRSC20121	56718	85378	5.18e5	4.30e5	inactive
CG9801 (GeneID 41044)	DRSC16568	31228	17981	2.05e5	2.33e5	inactive
Fsn (GeneID 36460)	DRSC06875	6.23e5	5.26e5	2.11e6	2.32e6	inactive
Fsn (GeneID 36460)	DRSC27704	2.69e5	1.90e5	4.98e5	5.75e5	inactive
PK2-R2 (GeneID 41638)	DRSC16448	76123	1.24e5	1.42e6	2.16e6	inactive
PK2-R2 (GeneID 41638)	DRSC25536	8.39e5	7.03e5	1.20e6	1.21e6	inactive
